This experiment has as its target T1, SCC3, yeast two-hybrid fusion (Arabidopsis thaliana) (UniProt O82265).
T1 sequence: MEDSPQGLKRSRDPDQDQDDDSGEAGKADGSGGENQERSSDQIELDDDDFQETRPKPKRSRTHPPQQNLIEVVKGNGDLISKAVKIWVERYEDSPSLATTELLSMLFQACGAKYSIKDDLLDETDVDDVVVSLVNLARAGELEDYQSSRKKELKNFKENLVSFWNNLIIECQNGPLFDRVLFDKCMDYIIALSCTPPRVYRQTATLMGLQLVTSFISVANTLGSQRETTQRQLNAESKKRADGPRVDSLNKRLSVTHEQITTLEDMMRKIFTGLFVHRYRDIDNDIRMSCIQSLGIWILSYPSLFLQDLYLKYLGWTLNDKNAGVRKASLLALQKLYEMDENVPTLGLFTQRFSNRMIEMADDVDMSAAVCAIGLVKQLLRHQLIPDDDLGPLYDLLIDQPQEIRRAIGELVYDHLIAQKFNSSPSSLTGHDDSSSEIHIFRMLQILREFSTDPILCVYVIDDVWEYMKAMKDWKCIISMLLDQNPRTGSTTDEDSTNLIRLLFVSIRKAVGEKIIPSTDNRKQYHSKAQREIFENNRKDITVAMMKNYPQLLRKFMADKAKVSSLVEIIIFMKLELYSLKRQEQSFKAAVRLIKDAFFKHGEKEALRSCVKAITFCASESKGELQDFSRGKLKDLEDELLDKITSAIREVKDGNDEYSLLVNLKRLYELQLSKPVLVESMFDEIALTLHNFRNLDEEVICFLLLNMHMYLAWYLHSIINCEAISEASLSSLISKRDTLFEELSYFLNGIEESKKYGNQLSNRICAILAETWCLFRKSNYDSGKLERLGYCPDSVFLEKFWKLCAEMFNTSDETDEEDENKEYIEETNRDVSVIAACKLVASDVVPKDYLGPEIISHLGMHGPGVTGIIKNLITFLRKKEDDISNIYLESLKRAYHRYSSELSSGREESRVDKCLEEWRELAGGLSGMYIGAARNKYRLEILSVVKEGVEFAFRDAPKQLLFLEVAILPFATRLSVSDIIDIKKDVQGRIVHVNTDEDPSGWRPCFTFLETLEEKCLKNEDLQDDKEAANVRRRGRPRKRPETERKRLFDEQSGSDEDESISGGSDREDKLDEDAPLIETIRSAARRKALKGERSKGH
As to the kind of experiment: two-hybrid.

These are yes or no findings as the source states them, for the method shown. Tags and fused reporters may be left off the sequences shown.

B1: SWITCH 1/DYAD (SWI1), yeast two-hybrid fusion (protein, UniProt Q9FGN8 1-639)
chain: MSSTMFVKRNPIRETTAGKISSPSSPTLNVAVAHIRAGSYYEIDASILPQRSPENLKSIRVVMVSKITASDVSLRYPSMFSLRSHFDYSRMNRNKPMKKRSGGGLLPVFDESHVMASELAGDLLYRRIAPHELSMNRNSWGFWVSSSSRRNKFPRREVVSQPAYNTRLCRAASPEGKCSSELKSGGMIKWGRRLRVQYQSRHIDTRKNKEGEESSRVKDEVYKEEEMEKEEDDDDGNEIGGTKQEAKEITNGNRKRKLIESSTERLAQKAKVYDQKKETQIVVYKRKSERKFIDRWSVERYKLAERNMLKVMKEKNAVFGNSILRPELRSEARKLIGDTGLLDHLLKHMAGKVAPGGQDRFMRKHNADGAMEYWLESSDLIHIRKEAGVKDPYWTPPPGWKLGDNPSQDPVCAGEIRDIREELASLKRELKKLASKKEEEELVIMTTPNSCVTSQNDNLMTPAKEIYADLLKKKYKIEDQLVIIGETLRKMEEDMGWLKKTVDENYPKKPDSTETPLLLEDSPPIQTLEGEVKVVNKGNQITESPQNREKGRKHDQQERSPLSLISNTGFRICRPVGMFAWPQLPALAAATDTNASSPSHRQAYPSPFPVKPLAAKRPLGLTFPFTIIPEEAPKNLFNV
Take B1: the binding entry is “no binding”.

Values taken from publication doi:10.1101/551317.
